Data taken from doi:10.1101/2020.05.31.126441.
These are yes or no findings as the source states them, for the method shown. In cells and extracts the contact can be indirect. Where a sequence is shown, tags or fusion partners need not be part of it.

Biological target: T1, Snx14^FL-3XFlag (human) (UniProt Q9Y5W7)
T1 sequence: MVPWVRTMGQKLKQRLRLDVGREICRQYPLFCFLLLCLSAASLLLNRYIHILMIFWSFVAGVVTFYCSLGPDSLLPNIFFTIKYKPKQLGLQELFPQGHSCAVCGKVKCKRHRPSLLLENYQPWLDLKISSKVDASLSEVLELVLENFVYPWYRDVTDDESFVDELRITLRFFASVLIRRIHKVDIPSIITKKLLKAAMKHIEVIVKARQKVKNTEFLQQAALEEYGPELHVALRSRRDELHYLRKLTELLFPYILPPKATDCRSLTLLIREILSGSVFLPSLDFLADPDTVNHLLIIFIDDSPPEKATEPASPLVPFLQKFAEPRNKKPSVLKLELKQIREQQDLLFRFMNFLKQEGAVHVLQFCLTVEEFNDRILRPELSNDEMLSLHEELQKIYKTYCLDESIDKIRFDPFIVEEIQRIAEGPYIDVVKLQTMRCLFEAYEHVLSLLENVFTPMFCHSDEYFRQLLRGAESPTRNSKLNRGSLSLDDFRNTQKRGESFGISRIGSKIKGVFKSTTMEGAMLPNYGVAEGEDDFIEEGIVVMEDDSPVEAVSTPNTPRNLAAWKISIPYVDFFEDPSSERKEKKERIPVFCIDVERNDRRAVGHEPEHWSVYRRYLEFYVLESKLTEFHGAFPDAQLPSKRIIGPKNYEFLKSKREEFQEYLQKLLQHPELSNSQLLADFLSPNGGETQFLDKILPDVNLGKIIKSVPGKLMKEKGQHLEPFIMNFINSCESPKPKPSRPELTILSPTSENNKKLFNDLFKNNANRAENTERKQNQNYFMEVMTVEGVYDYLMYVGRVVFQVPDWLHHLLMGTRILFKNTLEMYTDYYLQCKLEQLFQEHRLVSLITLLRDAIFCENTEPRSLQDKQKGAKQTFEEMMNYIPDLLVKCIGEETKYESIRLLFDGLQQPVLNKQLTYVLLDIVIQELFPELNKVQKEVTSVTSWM
Assay: co-IP

binding: no binding
B1: Perilipin 3 (PLIN3) (protein, UniProt O60664 1-434)
chain: MSADGAEADGSTQVTVEEPVQQPSVVDRVASMPLISSTCDMVSAAYASTKESYPHIKTVCDAAEKGVRTLTAAAVSGAQPILSKLEPQIASASEYAHRGLDKLEENLPILQQPTEKVLADTKELVSSKVSGAQEMVSSAKDTVATQLSEAVDATRGAVQSGVDKTKSVVTGGVQSVMGSRLGQMVLSGVDTVLGKSEEWADNHLPLTDAELARIATSLDGFDVASVQQQRQEQSYFVRLGSLSERLRQHAYEHSLGKLRATKQRAQEALLQLSQVLSLMETVKQGVDQKLVEGQEKLHQMWLSWNQKQLQGPEKEPPKPEQVESRALTMFRDIAQQLQATCTSLGSSIQGLPTNVKDQVQQARRQVEDLQATFSSIHSFQDLSSSILAQSRERVASAREALDHMVEYVAQNTPVTWLVGPFAPGITEKAPEEKK
